Data on two molecules can be found in paper PMC5785033.

No constants are given. Whether binding was seen depends on the method and setting. In cells and extracts the contact can be indirect. Some binding calls cover weakened binding; strength is not graded here. For some assays here: Where a sequence is shown, tags or fusion partners need not be part of it.

Assay [1] has as its target T1, MORC2A (mouse (endogenous in testis)) (UniProt Q69ZX6).
T1 sequence: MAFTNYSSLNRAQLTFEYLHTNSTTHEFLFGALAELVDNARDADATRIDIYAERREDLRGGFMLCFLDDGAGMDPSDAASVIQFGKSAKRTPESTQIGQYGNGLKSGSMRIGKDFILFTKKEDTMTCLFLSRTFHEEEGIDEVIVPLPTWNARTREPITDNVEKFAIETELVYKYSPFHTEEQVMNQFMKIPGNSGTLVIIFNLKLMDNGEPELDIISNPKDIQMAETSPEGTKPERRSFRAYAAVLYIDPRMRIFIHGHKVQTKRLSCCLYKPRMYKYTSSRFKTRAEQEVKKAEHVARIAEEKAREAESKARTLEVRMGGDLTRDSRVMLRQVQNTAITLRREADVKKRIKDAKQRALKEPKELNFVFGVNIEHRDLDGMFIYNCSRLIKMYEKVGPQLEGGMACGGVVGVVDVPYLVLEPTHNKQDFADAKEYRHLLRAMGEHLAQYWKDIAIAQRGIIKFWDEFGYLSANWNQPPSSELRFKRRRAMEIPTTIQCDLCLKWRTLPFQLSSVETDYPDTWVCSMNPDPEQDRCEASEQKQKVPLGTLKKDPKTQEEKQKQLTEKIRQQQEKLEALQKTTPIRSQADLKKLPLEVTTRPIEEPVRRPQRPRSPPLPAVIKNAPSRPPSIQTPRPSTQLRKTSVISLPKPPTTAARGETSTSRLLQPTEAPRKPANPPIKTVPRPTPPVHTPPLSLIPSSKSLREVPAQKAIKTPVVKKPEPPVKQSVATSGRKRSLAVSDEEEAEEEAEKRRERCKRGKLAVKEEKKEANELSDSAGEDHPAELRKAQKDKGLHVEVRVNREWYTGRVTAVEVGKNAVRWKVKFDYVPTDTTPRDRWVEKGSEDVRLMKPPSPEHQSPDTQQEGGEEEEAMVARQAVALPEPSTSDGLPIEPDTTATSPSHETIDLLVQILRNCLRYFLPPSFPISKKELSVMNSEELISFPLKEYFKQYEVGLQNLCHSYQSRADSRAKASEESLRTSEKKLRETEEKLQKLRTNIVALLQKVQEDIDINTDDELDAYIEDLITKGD
The experiment in a line: co-IP; PND20 testicular protein extracts; IP with anti-MORC2A antibody, western blot for MORC2B. A general note: Immunoblotting shows a protein as a band on a membrane.

Assay [2] has as its target T2, tagged MORC2B (pcDNA3.1/V5-His-TOPO) (mouse) (UniProt Q8C5W4).
T2 sequence: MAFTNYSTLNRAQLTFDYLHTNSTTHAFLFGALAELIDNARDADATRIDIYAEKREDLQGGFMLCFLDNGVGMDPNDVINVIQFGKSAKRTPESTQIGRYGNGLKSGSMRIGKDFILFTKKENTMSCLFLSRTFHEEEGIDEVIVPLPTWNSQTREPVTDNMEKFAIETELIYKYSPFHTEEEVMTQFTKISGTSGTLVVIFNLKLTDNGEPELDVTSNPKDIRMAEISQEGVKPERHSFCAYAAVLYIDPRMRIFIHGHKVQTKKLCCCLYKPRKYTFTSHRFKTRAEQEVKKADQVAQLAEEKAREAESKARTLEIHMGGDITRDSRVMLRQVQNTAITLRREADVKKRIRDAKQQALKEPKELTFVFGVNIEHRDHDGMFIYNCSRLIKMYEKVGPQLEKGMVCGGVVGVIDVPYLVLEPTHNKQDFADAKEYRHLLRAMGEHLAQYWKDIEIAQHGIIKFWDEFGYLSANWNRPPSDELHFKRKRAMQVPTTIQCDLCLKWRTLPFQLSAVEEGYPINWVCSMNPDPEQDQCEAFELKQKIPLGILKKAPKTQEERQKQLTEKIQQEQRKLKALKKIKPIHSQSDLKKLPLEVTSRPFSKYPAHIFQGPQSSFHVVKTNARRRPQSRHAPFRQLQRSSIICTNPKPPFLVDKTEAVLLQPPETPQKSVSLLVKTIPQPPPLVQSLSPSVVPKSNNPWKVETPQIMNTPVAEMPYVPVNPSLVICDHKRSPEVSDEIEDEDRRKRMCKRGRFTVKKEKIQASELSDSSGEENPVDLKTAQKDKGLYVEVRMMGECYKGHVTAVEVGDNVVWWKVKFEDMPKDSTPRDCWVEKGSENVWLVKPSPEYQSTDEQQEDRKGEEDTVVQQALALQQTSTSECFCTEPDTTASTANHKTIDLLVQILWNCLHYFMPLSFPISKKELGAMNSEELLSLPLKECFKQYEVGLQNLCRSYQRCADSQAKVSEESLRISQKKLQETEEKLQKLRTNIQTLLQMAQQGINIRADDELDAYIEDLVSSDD
The experiment in a line: co-IP; tagged MORC2A and MORC2B co-expressed in HEK 293T cells; lysis in 50 mM HEPES pH 7.5, 140 mM NaCl, 1 mM DTT, 10% glycerol, 0.5% NP-40; IP with anti-V5 antibody, western blot with anti-Myc antibody.

B1: MORC2B (protein, UniProt Q8C5W4-1 1-1022)
chain: T2 sequence
As to B1, the binding result in assay [1] is “binds”.

B2: tagged MORC2A (pcDNA3.1/myc-His) (protein, UniProt Q69ZX6 1-1030)
chain: T1 sequence
In the case of B2, in assay [2], the binding result was “binds”.
